Data from patent US20150330991A1, “METHOD FOR IMPROVING TARGET AFFINITY OF PEPTIDE” (GWANGJU INSTITUTE OF SCIENCE AND TECHNOLOGY, priority 2012, published 2015).
Results are given in words; binding and its absence hold for the method and conditions named.

Columns and labels:
Experiment in all cases: phage ELISA, wells coated with 5 µg/ml protein, anti-M13-HRP, absorbance at 450 nm
VEGF = molecular target: VEGF
TNF = molecular target: TNF
VEGFR2 = molecular target: VEGFR2
HSA (human) = molecular target: HSA (human)
Ovalbumin = molecular target: Ovalbumin

Measured: binding

B1: VEGFR1_opti2 (peptide)
peptide: GNQWFIGGGSWTWENGKWTWKGKLQNPM
not listed: Ovalbumin
no binding: all other assays above

B2: VEGFR1_opti3 (peptide)
peptide: GNQWFIGGGSWTWENGKWTWKGQQAIQP
not listed: Ovalbumin
no binding: all other assays above

B3: VEGFR1_opti1 (peptide)
peptide: GNQWFIGGGSWTWENGKWTWKGRIPKNR
not listed: Ovalbumin
no binding: all other assays above

B4: Strep_opti2 (peptide)
peptide: WSHPQFEKGGGSWTWENGKWTWKGTLIHPM
no binding: Ovalbumin | VEGF

B5: Strep_opti1 (peptide)
peptide: WSHPQFEKGGGSWTWENGKWTWKGAHPQVR
no binding: Ovalbumin | VEGF
